The list shows a part of the results.
Experiments:
Experiment in all cases: glycan array binding signal (z-score within array); higher = stronger binding
Conditions in all cases: glycan notation: IUPAC condensed, linker removed
[1] = target: Man(a1-3)[Man(a1-6)]Man(a1-6)[Man(a1-3)]Man(b1-4)GlcNAc(b1-4)GlcNAc
In short: (§1)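 Glycan array data came from 3228 arrays in the Consortium for Functional Glycomics database, and only arrays with an available protein sequence were kept. Glycan names were put into IUPAC-condensed notation, and columns mapping to the same glycan were averaged. The binding signal is a within-array Z-score, averaged across arrays of one protein sequence run at different concentrations or buffers and across linkers. A negative Z-score can be read as non-binding.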

[2] = target: Man(a1-3)[Man(a1-6)]Man(b1-4)GlcNAc(b1-4)GlcNAc
In short: as §1

[3] = target: Man(a1-3)[Man(a1-6)]Man(b1-4)GlcNAc(b1-4)[Fuc(a1-6)]GlcNAc
In short: as §1

[4] = target: Man(a1-6)Man
In short: as §1

[5] = target: Man(b1-4)GlcNAc
In short: as §1

[6] = target: MurNAc(b1-4)GlcNAc
In short: as §1

[7] = target: Neu5Ac(a2-3)Gal
In short: as §1

[8] = target: Neu5Ac(a2-3)Gal(b1-3)GalNAc
In short: as §1

[9] = target: Neu5Ac(a2-3)Gal(b1-3)GalNAc(b1-3)Gal(a1-4)Gal(b1-4)Glc
In short: as §1

[10] = target: Neu5Ac(a2-3)Gal(b1-3)GalNAc(b1-4)[Neu5Ac(a2-3)]Gal(b1-4)Glc
In short: as §1

[11] = target: Neu5Ac(a2-3)Gal(b1-3)GalNAc(b1-4)[Neu5Ac(a2-8)Neu5Ac(a2-3)]Gal(b1-4)Glc
In short: as §1

[12] = target: Neu5Ac(a2-3)Gal(b1-3)GalNAc6S
In short: as §1

[13] = target: Neu5Ac(a2-3)Gal(b1-3)GlcNAc
In short: as §1

[14] = target: Neu5Ac(a2-3)Gal(b1-3)GlcNAc(b1-2)Man
In short: as §1

[15] = target: Neu5Ac(a2-3)Gal(b1-3)GlcNAc(b1-2)Man(a1-3)[GlcNAc(b1-4)][Neu5Ac(a2-3)Gal(b1-3)GlcNAc(b1-2)Man(a1-6)]Man(b1-4)GlcNAc(b1-4)GlcNAc
In short: as §1

[16] = target: Neu5Ac(a2-3)Gal(b1-3)GlcNAc(b1-2)Man(a1-3)[Neu5Ac(a2-3)Gal(b1-3)GlcNAc(b1-2)Man(a1-6)]Man(b1-4)GlcNAc(b1-4)GlcNAc
In short: as §1

[17] = target: Neu5Ac(a2-3)Gal(b1-3)GlcNAc(b1-2)[Neu5Ac(a2-3)Gal(b1-3)GlcNAc(b1-4)]Man(a1-6)[Neu5Ac(a2-3)Gal(b1-3)GlcNAc(b1-2)Man(a1-3)]Man(b1-4)GlcNAc(b1-4)GlcNAc
In short: as §1

[18] = target: Neu5Ac(a2-3)Gal(b1-3)GlcNAc(b1-3)Gal(b1-3)GlcNAc
In short: as §1

[19] = target: Neu5Ac(a2-3)Gal(b1-3)GlcNAc(b1-3)Gal(b1-4)GlcNAc
In short: as §1

[20] = target: Neu5Ac(a2-3)Gal(b1-3)GlcNAc(b1-3)GalNAc
In short: as §1

[21] = target: Neu5Ac(a2-3)Gal(b1-3)GlcNAc(b1-4)Gal(b1-4)Glc
In short: as §1

[22] = target: Neu5Ac(a2-3)Gal(b1-3)GlcNAc(b1-6)GalNAc
In short: as §1

[23] = target: Neu5Ac(a2-3)Gal(b1-3)GlcNAc6S
In short: as §1

[24] = target: Neu5Ac(a2-3)Gal(b1-3)[Fuc(a1-4)]GlcNAc
In short: as §1

[25] = target: Neu5Ac(a2-3)Gal(b1-3)[Fuc(a1-4)]GlcNAc(b1-3)Gal(b1-3)[Fuc(a1-4)]GlcNAc
In short: as §1

[26] = target: Neu5Ac(a2-3)Gal(b1-3)[Fuc(a1-4)]GlcNAc(b1-3)Gal(b1-4)[Fuc(a1-3)]GlcNAc
In short: as §1

[27] = target: Neu5Ac(a2-3)Gal(b1-3)[GlcNAc(b1-6)]GalNAc
In short: as §1

[28] = target: Neu5Ac(a2-3)Gal(b1-3)[Neu5Ac(a2-3)Gal(b1-4)]GlcNAc
In short: as §1

[29] = target: Neu5Ac(a2-3)Gal(b1-3)[Neu5Ac(a2-6)]GalNAc
In short: as §1

[30] = target: Neu5Ac(a2-3)Gal(b1-3)[Neu5Ac(a2-6)]GlcNAc(b1-3)[Fuc(a1-3)[Gal(b1-4)]GlcNAc(b1-6)]Gal(b1-4)Glc
In short: as §1

[31] = target: Neu5Ac(a2-3)Gal(b1-3)]Neu5Ac(a2-3)Gal(b1-4)]GlcNAc
In short: as §1

[32] = target: Neu5Ac(a2-3)Gal(b1-4)Glc
In short: as §1

[33] = target: Neu5Ac(a2-3)Gal(b1-4)GlcNAc
In short: as §1

[34] = target: Neu5Ac(a2-3)Gal(b1-4)GlcNAc(b1-2)Man
In short: as §1

[35] = target: Neu5Ac(a2-3)Gal(b1-4)GlcNAc(b1-2)Man(a1-3)[GlcNAc(b1-2)Man(b1-4)GlcNAc(b1-2)Man(a1-6)]Man(b1-4)GlcNAc(b1-4)GlcNAc
In short: as §1

[36] = target: Neu5Ac(a2-3)Gal(b1-4)GlcNAc(b1-2)Man(a1-3)[GlcNAc(b1-4)][Neu5Ac(a2-3)Gal(b1-4)GlcNAc(b1-2)Man(a1-6)]Man(b1-4)GlcNAc(b1-4)GlcNAc
In short: as §1

[37] = target: Neu5Ac(a2-3)Gal(b1-4)GlcNAc(b1-2)Man(a1-3)[Neu5Ac(a2-3)Gal(b1-4)GlcNAc(b1-2)Man(a1-6)]Man(b1-4)GlcNAc(b1-4)GlcNAc
In short: as §1

B1: CRT-1 (Homo sapiens), P27797 (protein)
chain: MLLSVPLLLGLLGLAVAEPAVYFKEQFLDGDGWTSRWIESKHKSDFGKFVLSSGKFYGDEEKDKGLQTSQDARFYALSASFEPFSNKGQTLVVQFTVKHEQNIDCGGGYVKLFPNSLDQTDMHGDSEYNIMFGPDICGPGTKKVHVIFNYKGKNVLINKDIRCKDDEFTHLYTLIVRPDNTYEVKIDNSQVESGSLEDDWDFLPPKKIKDPDASKPEDWDERAKIDDPTDSKPEDWDKPEHIPDPDAKKPEDWDEEMDGEWEPPVIQNPEYKGEWKPRQIDNPDYKGTWIHPEIDNPEYSPDPSIYAYDNFGVLGLDLWQVKSGTIFDNFLITNDEAYAEEFGNETWGVTKAAEKQMKDKQDEEQRLKEEEEDKKRKEEEEAEDKEDDEDKDEDEEDEEDKEEDEEEDVPGQAKDEL
glycan array binding signal (z-score) [1]: -0.022 | glycan array binding signal (z-score) [2]: -0.177 | glycan array binding signal (z-score) [3]: 0.443 | glycan array binding signal (z-score) [4]: 0.065 | glycan array binding signal (z-score) [5]: -0.39 | glycan array binding signal (z-score) [6]: -0.604 | glycan array binding signal (z-score) [7]: -0.226 | glycan array binding signal (z-score) [8]: -0.026 | glycan array binding signal (z-score) [9]: -0.264 | glycan array binding signal (z-score) [10]: 0.04 | glycan array binding signal (z-score) [11]: -0.48 | glycan array binding signal (z-score) [12]: -0.642 | glycan array binding signal (z-score) [13]: -0.244 | glycan array binding signal (z-score) [14]: 0.718 | glycan array binding signal (z-score) [15]: -0.793 | glycan array binding signal (z-score) [16]: -0.77 | glycan array binding signal (z-score) [17]: -0.396 | glycan array binding signal (z-score) [18]: -0.776 | glycan array binding signal (z-score) [19]: -0.783 | glycan array binding signal (z-score) [20]: 0.481 | glycan array binding signal (z-score) [21]: -1.66 | glycan array binding signal (z-score) [22]: 0.522 | glycan array binding signal (z-score) [23]: 0.25 | glycan array binding signal (z-score) [24]: -0.036 | glycan array binding signal (z-score) [25]: -0.707 | glycan array binding signal (z-score) [26]: 0.492 | glycan array binding signal (z-score) [27]: -0.093 | glycan array binding signal (z-score) [28]: -0.29 | glycan array binding signal (z-score) [29]: 0.236 | glycan array binding signal (z-score) [30]: -0.346 | glycan array binding signal (z-score) [31]: -0.786 | glycan array binding signal (z-score) [32]: -0.013 | glycan array binding signal (z-score) [33]: -0.166 | glycan array binding signal (z-score) [34]: 0.609 | glycan array binding signal (z-score) [35]: -0.229 | glycan array binding signal (z-score) [36]: 0.286 | glycan array binding signal (z-score) [37]: -0.33

From the supplement of paper PMC8728848
